# Reference: the supplement of paper PMC8728848
# This is one part of the list.
# B1: truncCC1G-10077 (Coprinopsis cinerea) (protein)
# chain: MHHHHHHHHPLPSPGPGWVLIQNGGTGKFLCSTPSGDIGTADGPETVYDYSVQWRFIQREYTGVYHVVNRATGAYLRQIGTSMPSIGLAEENDDELKDWWMLETYDNSEIGLASIISRWTGNVLDHYGGVSVQALDNNTENSYRSWAIIPARDWLTSFSLVNGQGGLCLAAQYAREETRLSTTANVNDFHAQWVFRKPSGSSGYTIQNKYNNHYVGGTSARWELVVCCNKYFGIRNTSTQKYLAIEDGQVTFQDQDMTDRKQCWELCSGRATDTSGNDYDLIYMDDDLLEVMIPWVGDKQGDLKHYIEKRATKKPPKDKGGWQLPAAGLIKKPKFNDIRQLLQELIEQWEWDVVNEEREQIQTLVSIDEAEARRLLGRRPHPDIVAAYQRSRSSTLFRIDRQGYFNIAGDRYVNIQGQYGDDSYFHIALPVGVRFGREQIRRFLRDSLDRSTSVTITPTTCKPPSGGPDYNRDPDSDGDNSWIKWTIAVVGTSAIKHSEL
# Columns and labels:
# Assay in all cases: glycan array binding signal (z-score within array); higher = stronger binding
# Settings in all cases: glycan notation: IUPAC condensed, linker removed
# Fuc(a1-2)Gal = target: Fuc(a1-2)Gal
# Method in brief: (§1)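 The binding signal is a Z-score computed within each array. Data were drawn from 3228 arrays in the Consortium for Functional Glycomics database, restricted to those with a known protein sequence. Scores were averaged over arrays of the same protein sequence at different concentrations or buffers, and over linkers, and negative values can be taken as non-binding.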
# Fuc(a1-2)Gal(b1-3)GalNAc = target: Fuc(a1-2)Gal(b1-3)GalNAc
# Method in brief: as §1
# [1] = target: Fuc(a1-2)Gal(b1-3)GalNAc(a1-3)[Fuc(a1-2)]Gal(b1-4)Glc
# Method in brief: as §1
# [2] = target: Fuc(a1-2)Gal(b1-3)GalNAc(a1-3)[Fuc(a1-2)]Gal(b1-4)GlcNAc
# Method in brief: as §1
# [3] = target: Fuc(a1-2)Gal(b1-3)GalNAc(b1-3)Gal
# Method in brief: as §1
# [4] = target: Fuc(a1-2)Gal(b1-3)GalNAc(b1-3)Gal(a1-4)Gal(b1-4)Glc
# Method in brief: as §1
# [5] = target: Fuc(a1-2)Gal(b1-3)GalNAc(b1-4)[Neu5Ac(a2-3)]Gal(b1-4)Glc
# Method in brief: as §1
# Fuc(a1-2)Gal(b1-3)GlcNAc = target: Fuc(a1-2)Gal(b1-3)GlcNAc
# Method in brief: as §1
# [6] = target: Fuc(a1-2)Gal(b1-3)GlcNAc(b1-2)Man(a1-3)[Fuc(a1-2)Gal(b1-3)GlcNAc(b1-2)Man(a1-6)]Man(b1-4)GlcNAc(b1-4)GlcNAc
# Method in brief: as §1
# [7] = target: Fuc(a1-2)Gal(b1-3)GlcNAc(b1-2)Man(a1-3)[Fuc(a1-2)Gal(b1-3)GlcNAc(b1-2)Man(a1-6)]Man(b1-4)GlcNAc(b1-4)[Fuc(a1-6)]GlcNAc
# Method in brief: as §1
# [8] = target: Fuc(a1-2)Gal(b1-3)GlcNAc(b1-3)Gal(b1-4)Glc
# Method in brief: as §1
# [9] = target: Fuc(a1-2)Gal(b1-3)GlcNAc(b1-3)GalNAc
# Method in brief: as §1
# [10] = target: Fuc(a1-2)Gal(b1-3)GlcNAc(b1-3)[Fuc(a1-2)Gal(b1-3)GlcNAc(b1-6)]GalNAc
# Method in brief: as §1
# [11] = target: Fuc(a1-2)Gal(b1-3)GlcNAc(b1-3)[Gal(b1-4)GlcNAc(b1-6)]Gal(b1-4)Glc
# Method in brief: as §1
# [12] = target: Fuc(a1-2)Gal(b1-3)GlcNAc(b1-3)[Neu5Ac(a2-6)Gal(b1-4)GlcNAc(b1-6)]Gal(b1-4)Glc
# Method in brief: as §1
# [13] = target: Fuc(a1-2)Gal(b1-3)GlcNAc6S
# Method in brief: as §1
# [14] = target: Fuc(a1-2)Gal(b1-3)[Fuc(a1-4)]GlcNAc
# Method in brief: as §1
# [15] = target: Fuc(a1-2)Gal(b1-3)[Fuc(a1-4)]GlcNAc(b1-2)Man(a1-3)[Fuc(a1-2)Gal(b1-3)[Fuc(a1-4)]GlcNAc(b1-2)Man(a1-3)]Man(b1-4)GlcNAc(b1-4)GlcNAc
# Method in brief: as §1
# [16] = target: Fuc(a1-2)Gal(b1-3)[Fuc(a1-4)]GlcNAc(b1-2)Man(a1-3)[Fuc(a1-2)Gal(b1-3)[Fuc(a1-4)]GlcNAc(b1-2)Man(a1-6)]Man(b1-4)GlcNAc(b1-4)[Fuc(a1-6)]GlcNAc(b1-4)[Fuc(a1-6)]GlcNAc
# Method in brief: as §1
# [17] = target: Fuc(a1-2)Gal(b1-3)[Fuc(a1-4)]GlcNAc(b1-3)[Fuc(a1-3)[Gal(b1-4)]GlcNAc(b1-6)]Gal(b1-4)Glc
# Method in brief: as §1
# [18] = target: Fuc(a1-2)Gal(b1-3)[Fuc(a1-4)]GlcNAc(b1-3)[Gal(b1-4)GlcNAc(b1-6)]Gal(b1-4)Glc
# Method in brief: as §1
# Fuc(a1-2)Gal(b1-4)Glc = target: Fuc(a1-2)Gal(b1-4)Glc
# Method in brief: as §1
# Fuc(a1-2)Gal(b1-4)Glc6S = target: Fuc(a1-2)Gal(b1-4)Glc6S
# Method in brief: as §1
# Fuc(a1-2)Gal(b1-4)GlcNAc = target: Fuc(a1-2)Gal(b1-4)GlcNAc
# Method in brief: as §1
# [19] = target: Fuc(a1-2)Gal(b1-4)GlcNAc(b1-2)Man
# Method in brief: as §1
# [20] = target: Fuc(a1-2)Gal(b1-4)GlcNAc(b1-2)Man(a1-3)[Fuc(a1-2)Gal(b1-4)GlcNAc(b1-2)Man(a1-6)]Man(b1-4)GlcNAc(b1-4)GlcNAc
# Method in brief: as §1
# [21] = target: Fuc(a1-2)Gal(b1-4)GlcNAc(b1-2)Man(a1-3)[Fuc(a1-2)Gal(b1-4)GlcNAc(b1-2)Man(a1-6)]Man(b1-4)GlcNAc(b1-4)[Fuc(a1-6)]GlcNAc
# Method in brief: as §1
# [22] = target: Fuc(a1-2)Gal(b1-4)GlcNAc(b1-2)[Fuc(a1-2)Gal(b1-4)GlcNAc(b1-4)]Man(a1-3)[Fuc(a1-2)Gal(b1-4)GlcNAc(b1-2)Man(a1-6)]Man(b1-4)GlcNAc(b1-4)GlcNAc
# Method in brief: as §1
# [23] = target: Fuc(a1-2)Gal(b1-4)GlcNAc(b1-3)Gal(b1-4)GlcNAc
# Method in brief: as §1
# [24] = target: Fuc(a1-2)Gal(b1-4)GlcNAc(b1-3)Gal(b1-4)GlcNAc(b1-2)Man(a1-3)[Fuc(a1-2)Gal(b1-4)GlcNAc(b1-3)Gal(b1-4)GlcNAc(b1-2)Man(a1-6)]Man(b1-4)GlcNAc(b1-4)GlcNAc
# Method in brief: as §1
# [25] = target: Fuc(a1-2)Gal(b1-4)GlcNAc(b1-3)Gal(b1-4)GlcNAc(b1-3)Gal(b1-4)GlcNAc
# Method in brief: as §1
# [26] = target: Fuc(a1-2)Gal(b1-4)GlcNAc(b1-3)GalNAc
# Method in brief: as §1
# [27] = target: Fuc(a1-2)Gal(b1-4)GlcNAc(b1-3)[Fuc(a1-2)Gal(b1-4)GlcNAc(b1-6)]GalNAc
# Method in brief: as §1
# [28] = target: Fuc(a1-2)Gal(b1-4)GlcNAc(b1-3)[Fuc(a1-3)[Gal(b1-4)]GlcNAc(b1-6)]Gal(b1-4)Glc
# Method in brief: as §1
# [29] = target: Fuc(a1-2)Gal(b1-4)GlcNAc(b1-6)GalNAc
# Method in brief: as §1
# [30] = target: Fuc(a1-2)Gal(b1-4)GlcNAc6S
# Method in brief: as §1
# [31] = target: Fuc(a1-2)Gal(b1-4)[Fuc(a1-3)]GlcNAc
# Method in brief: as §1
# [32] = target: Fuc(a1-2)Gal(b1-4)[Fuc(a1-3)]GlcNAc(b1-2)Man(a1-3)[Fuc(a1-2)Gal(b1-4)[Fuc(a1-3)]GlcNAc(b1-2)Man(a1-6)]Man(b1-4)GlcNAc(b1-4)[Fuc(a1-6)]GlcNAc
# Method in brief: as §1
# [33] = target: Fuc(a1-2)Gal(b1-4)[Fuc(a1-3)]GlcNAc(b1-2)[Fuc(a1-2)Gal(b1-4)[Fuc(a1-3)]GlcNAc(b1-4)]Man(a1-3)[Fuc(a1-2)Gal(b1-4)[Fuc(a1-3)]GlcNAc(b1-2)Man(a1-6)]Man(b1-4)GlcNAc(b1-4)GlcNAc
# Method in brief: as §1
# [34] = target: Fuc(a1-2)Gal(b1-4)[Fuc(a1-3)]GlcNAc(b1-3)Gal(b1-4)[Fuc(a1-3)]GlcNAc
# Method in brief: as §1
# [35] = target: Fuc(a1-2)Gal(b1-4)[Fuc(a1-3)]GlcNAc(b1-3)Gal(b1-4)[Fuc(a1-3)]GlcNAc(b1-3)Gal(b1-4)[Fuc(a1-3)]GlcNAc
# Method in brief: as §1
# [36] = target: Fuc(a1-2)Gal(b1-4)[Fuc(a1-3)]GlcNAc(b1-3)GalNAc
# Method in brief: as §1
# [37] = target: Fuc(a1-2)Gal(b1-4)[Fuc(a1-3)]GlcNAc(b1-3)[Neu5Ac(a2-6)Gal(b1-4)GlcNAc(b1-6)]Gal(b1-4)Glc
# Method in brief: as §1
# [38] = target: Fuc(a1-2)Gal3S(b1-4)GlcNAc
# Method in brief: as §1
# [39] = target: Fuc(a1-2)Gal6S(b1-3)GlcNAc
# Method in brief: as §1
binder,measurement,setting,value
B1,glycan array binding signal (z-score),Fuc(a1-2)Gal,-1.02
same,glycan array binding signal (z-score),Fuc(a1-2)Gal(b1-3)GalNAc,-0.437
same,glycan array binding signal (z-score),[1],-0.99
same,glycan array binding signal (z-score),[2],1.23
same,glycan array binding signal (z-score),[3],-0.469
same,glycan array binding signal (z-score),[4],-0.396
same,glycan array binding signal (z-score),[5],-0.275
same,glycan array binding signal (z-score),Fuc(a1-2)Gal(b1-3)GlcNAc,-0.176
same,glycan array binding signal (z-score),[6],3.72
same,glycan array binding signal (z-score),[7],-0.456
same,glycan array binding signal (z-score),[8],-0.856
same,glycan array binding signal (z-score),[9],0.268
same,glycan array binding signal (z-score),[10],1.98
same,glycan array binding signal (z-score),[11],-0.333
same,glycan array binding signal (z-score),[12],-0.768
same,glycan array binding signal (z-score),[13],0.74
same,glycan array binding signal (z-score),[14],-1.07
same,glycan array binding signal (z-score),[15],0.415
same,glycan array binding signal (z-score),[16],0.247
same,glycan array binding signal (z-score),[17],-0.929
same,glycan array binding signal (z-score),[18],0.308
same,glycan array binding signal (z-score),Fuc(a1-2)Gal(b1-4)Glc,-0.216
same,glycan array binding signal (z-score),Fuc(a1-2)Gal(b1-4)Glc6S,0.121
same,glycan array binding signal (z-score),Fuc(a1-2)Gal(b1-4)GlcNAc,-0.991
same,glycan array binding signal (z-score),[19],0.411
same,glycan array binding signal (z-score),[20],1.35
same,glycan array binding signal (z-score),[21],0.64
same,glycan array binding signal (z-score),[22],1.51
same,glycan array binding signal (z-score),[23],-0.544
same,glycan array binding signal (z-score),[24],-0.136
same,glycan array binding signal (z-score),[25],-0.111
same,glycan array binding signal (z-score),[26],1.06
same,glycan array binding signal (z-score),[27],2.81
same,glycan array binding signal (z-score),[28],-1.04
same,glycan array binding signal (z-score),[29],1.06
same,glycan array binding signal (z-score),[30],-0.167
same,glycan array binding signal (z-score),[31],-0.845
same,glycan array binding signal (z-score),[32],0.514
same,glycan array binding signal (z-score),[33],0.675
same,glycan array binding signal (z-score),[34],-0.588
same,glycan array binding signal (z-score),[35],0.874
same,glycan array binding signal (z-score),[36],1.93
same,glycan array binding signal (z-score),[37],0.856
same,glycan array binding signal (z-score),[38],-0.165
same,glycan array binding signal (z-score),[39],-0.245

# For reference, some entries already given:
binder,measurement,setting,value
B1,glycan array binding signal (z-score),[20],1.35
same,glycan array binding signal (z-score),[21],0.64
